# Results published in PubChem BioAssay AID445 (National Center for Advancing Translational Sciences (NCATS), 2006).
# This is one part of the list. The main result of the screen is listed elsewhere. These columns were measured beside it and carry no call. Compounds called inactive in the main read-out are mostly missing here. Potencies come from curve fits of mixed quality, noted in brackets.
# Assay: IkB Signaling
# Details: ABC-DLBCL IkBa-CBG/CBR dual luciferase ratio (green luciferase fused to IkBa over red control in OCI-Ly3 lymphoma cells), 4 h
# In short: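 Curves were fitted separately to fusion (green), unfused (red) and ratio luminescence, then classed by r2, magnitude and activity. Cells: OCI-Ly3, 4 h compound plus doxycycline at 37C; 10 uM MG-132 defined full response.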
# [1] = measured here: control luc red channel unless noted
smiles,measurement,setting,value
COc1cc(NC(=O)C2=C(C)Nc3nnnn3C2c2ccc(SC)cc2)c(OC)cc1Cl (stereo not drawn),AC50,[1],"31.6 µM [falling, single point]"
COc1cc(C(=O)Oc2ccccc2N)cc(OC)c1OC,AC50,[1],"2 µM [falling, full curve]"
Cc1nn(CCCC(=O)NCc2ccccc2)c(=O)c2c1sc1ccccc12,AC50,[1],"10 µM [falling, partial curve]"
Cc1ccc(Oc2ccc(-c3nc(N)nc(N)n3)cc2)cc1,AC50,[1],"31.6 µM [falling, single point]"
CCN(C(=O)Cn1nc2c3cc(F)ccc3n(Cc3cccc(C)c3)cc-2c1=O)c1cccc(C)c1,AC50,[1],"31.6 µM [falling, single point]"
CCN(CC)CCOC(=O)c1ccc(NC(=O)c2nn(-c3ccc(C)cc3)c(=O)c3c2c2ccccc2n3C)cc1,AC50,[1],"5.01 µM [falling, full curve]"
COc1cc(OC)c(NC(=O)N2CCOc3ccc(C)cc32)cc1Cl,AC50,[1],"6.31 µM [rising, partial curve]"
COc1ccc(Cn2nnc3c(=O)[nH]c(C4CCCN(C(=O)c5ccccc5Cl)C4)nc32)cc1OC (stereo not drawn),AC50,[1],"3.16 µM [rising, partial curve]"
O=C(Nc1ccc2c(c1)N(C1CCCC1)C(=O)c1ccccc1S2)c1ccccc1,AC50,[1],"5.01 µM [falling, partial curve, poor fit]"
COc1ccc(CCNC(=O)C(=O)NCC(c2cccs2)S(=O)(=O)c2ccccc2)cc1 (stereo not drawn),AC50,[1],"2.51 µM [rising, partial curve] [measured here: IkB-luc green channel]"
Cc1cccc(-c2noc(CN(C(C)C)S(=O)(=O)c3ccc(F)cc3)n2)c1,AC50,[1],"25.1 µM [falling, partial curve]"
CC(=O)Nc1ccc(S(=O)(=O)N2CCN(CCCOc3cc(C)ccc3C)CC2)cc1,AC50,[1],"12.6 µM [falling, partial curve]"
O=C(Cn1cnc2c(cnn2-c2ccccc2)c1=O)N1CCCc2ccccc21,AC50,[1],"25.1 µM [falling, single point]"
CCCOc1ccc(-c2nnn(CC(=O)c3ccc4c(c3)OCCO4)n2)cc1,AC50,[1],"39.8 µM [falling, partial curve]"
O=C(Cn1cc(SCc2ccccc2Cl)c2ccccc21)N1CCCCCC1,AC50,[1],"10 µM [falling, partial curve]"
COc1ccc(OC)c(CNS(=O)(=O)c2ccc(-c3cc(C(F)(F)F)on3)s2)c1,AC50,[1],"31.6 µM [falling, partial curve]"
CCC1CN(C(=O)NCc2ccc(F)cc2)c2ccccc2O1 (stereo not drawn),AC50,[1],"10 µM [falling, partial curve]"
COc1ccc(-n2c(=O)c3c4c(sc3n(Cc3cc(=O)n5c(C)cccc5n3)c2=O)CCC4)c(OC)c1,AC50,[1],"39.8 µM [falling, single point]"
Cc1ccc(Cn2c(=O)c3ccccc3n3c(-c4ccccc4)nnc23)cc1,AC50,[1],"0.0794 µM [rising, full curve]"
O=C(CN1CCSCC1)N1CCc2[nH]c3ccc(Br)cc3c2C1,AC50,[1],"12.6 µM [falling, partial curve]"
CCc1ccc(CNC(=O)CSCc2cnn(-c3ccccc3)c2-n2cccc2)cc1,AC50,[1],"25.1 µM [falling, partial curve]"
Cc1ccc(OCC(=O)Nc2ccc3nc(SCC(=O)N4CCCC4)sc3c2)cc1C,AC50,[1],"15.8 µM [falling, partial curve]"
COc1ccc(NC(=O)CCCS(=O)(=O)c2nc(-c3ccc(OC)c(OC)c3)cc(C(F)(F)F)n2)cc1OC,AC50,measured here: IkB-luc green channel,"6.31 µM [rising, single point]"
same,AC50,measured here: control luc red channel,"10 µM [falling, partial curve]"
COc1ccc(Nc2nnc(-c3ccc(C)c(S(=O)(=O)N4CCOCC4)c3)c3ccccc23)cc1,AC50,[1],"1.58 µM [falling, full curve]"
COc1ccccc1N1CCN(C(=O)CSc2nc(-c3ccc(C(C)C)cc3)no2)CC1,AC50,[1],"31.6 µM [falling, single point]"
CCCCNC(=O)CSc1nc2n[nH]c(C)c2c(=N)n1-c1ccccc1CC,AC50,[1],"39.8 µM [falling, single point]"
COc1ccc(C2CC(=O)c3c([nH]c(C(=O)OCc4ccccc4)c3C)C2)cc1OC (stereo not drawn),AC50,[1],"1 µM [falling, full curve, poor fit]"
O=C(COc1ccccc1F)Nc1nnc(S(=O)(=O)N2CCCCCC2)s1,AC50,[1],"2 µM [rising, full curve]"
O=C(NCCCN1CCN(c2ccccc2)CC1)c1cc2c(s1)-c1ccccc1OC2,AC50,[1],"25.1 µM [falling, partial curve]"
Cc1ccccc1Cc1c(C)nc2nc(SCC(=O)NC(C)c3ccccc3)nn2c1C (stereo not drawn),AC50,[1],"20 µM [falling, partial curve]"
COC(=O)C1=C(C(=O)c2ccccc2)C(c2ccc(OC)c(OC)c2)Nc2nnnn21 (stereo not drawn),AC50,[1],"0.794 µM [rising, full curve]"
CCC1CN(C(=O)Nc2cccc3c2CCCC3)c2cc(C)ccc2O1 (stereo not drawn),AC50,[1],"12.6 µM [falling, partial curve]"
Cc1ccc(CNC(=O)CN(c2cc(C)cc(C)c2)S(=O)(=O)c2c(C)[nH]c(=O)[nH]c2=O)cc1,AC50,[1],"0.0158 µM [falling, full curve]"
CCOc1ccc(-c2ccc(CO)o2)cc1N,AC50,[1],"2.51 µM [rising, partial curve]"
CCc1cccc(NC(=O)CCS(=O)(=O)c2ccc(C)cc2)c1,AC50,[1],"39.8 µM [falling, single point]"
O=C(NC1CCCC1)c1ccc2c(c1)N(Cc1ccc(F)cc1)C(=O)c1ccccc1S2,AC50,[1],"25.1 µM [falling, single point]"
COc1ccc(NC(=O)C(Cc2ccccc2)n2cccc2)c(OC)c1 (stereo not drawn),AC50,[1],"25.1 µM [falling, single point]"
CC(C)CCNC(=O)CSc1nc2ccsc2c(=O)n1Cc1ccccc1Cl,AC50,[1],"1 µM [rising, partial curve]"
COc1ccc(-c2noc(-c3ccccc3NC(=O)c3cc(OC)c(OC)c(OC)c3)n2)cc1,AC50,[1],"25.1 µM [falling, single point]"
CCCCC12CN3CC(C)(CN(C1)C3c1c(C)[nH]c(=O)[nH]c1=O)C2=O (stereo not drawn),AC50,[1],"1.58 µM [rising, full curve]"
CCOc1ccc(NC(=O)CN2C(=O)C(c3ccccc3)=NC23CCCCCC3)cc1,AC50,[1],"15.8 µM [falling, partial curve]"
Cc1cccc(Cn2c(C)c(C)c3cc(C(=O)NCc4ccc(C)o4)ccc32)c1,AC50,[1],"10 µM [falling, partial curve]"
CCOc1ccc(CCNC(=O)c2cc3c(-c4cccc(OC)c4)nn(C)c3s2)cc1OCC,AC50,[1],"5.01 µM [falling, full curve]"
Cc1cccc(C(CC(=O)NCC2(c3ccccc3)CCCC2)c2ccccc2)c1O (stereo not drawn),AC50,[1],"7.94 µM [falling, partial curve]"
CN(c1ccc(Cl)cc1)c1cc(=O)n(C)c2ccccc12,AC50,[1],"15.8 µM [falling, partial curve]"
COc1cccc(NC(=O)COc2ccccc2C(N)=O)c1,AC50,[1],"12.6 µM [falling, partial curve]"
Cc1nc2nc(SCC(=O)NC(C)c3ccccc3)nn2c(C)c1Cc1c(F)cccc1Cl (stereo not drawn),AC50,[1],"15.8 µM [falling, partial curve]"
Cc1ccc(S(=O)(=O)N2CCN(C(=O)CSc3nc4ccccc4c(=O)[nH]3)CC2)cc1,AC50,[1],"31.6 µM [falling, single point]"
COC(=O)c1ccc(NC(=O)CC2C(=O)N(c3cccc(OC)c3)C(=O)N2Cc2cccc(OC)c2)cc1 (stereo not drawn),AC50,[1],"12.6 µM [falling, partial curve]"
CCOc1ccc2nc(N3CCCN(C(=O)Nc4ccccc4C)CC3)c(C#N)cc2c1,AC50,[1],"15.8 µM [falling, partial curve]"
Cc1cccc(C(=O)Nc2ccc(N3CCC(CCN4CCOCC4)CC3)c(C(=O)O)c2)c1,AC50,[1],"3.98 µM [rising, partial curve]"
CCOC(=O)Cc1[nH]nc2c1C(C1C=CCCC1)C(C#N)=C(N)O2 (stereo not drawn),AC50,[1],"7.94 µM [falling, partial curve]"
O=C(Nc1ccc(S(=O)(=O)N2CCC(c3nc4ccccc4s3)CC2)cc1)c1ccccc1F,AC50,[1],"15.8 µM [falling, partial curve]"
CCOC(=O)Cc1csc(NC(=O)CSc2nnnn2-c2ccc(CC)cc2)n1,AC50,[1],"25.1 µM [falling, partial curve]"
COc1ccc(-c2nnc(SC(=O)N3c4ccccc4Sc4ccccc43)o2)cc1,AC50,[1],"2.51 µM [falling, full curve, poor fit]"
Cc1csc(NC(=O)C(Cc2ccccc2)n2cccc2)n1 (stereo not drawn),AC50,[1],"12.6 µM [falling, partial curve]"
CCCCCOc1ccc(C(=O)N(Cc2ccccc2)C2CCS(=O)(=O)C2)cc1 (stereo not drawn),AC50,[1],"25.1 µM [falling, partial curve]"
N#Cc1cccc(NC(=O)NCCc2c[nH]c3ccccc23)c1,AC50,[1],"15.8 µM [falling, partial curve]"
Cc1ccc2nc(/C(C#N)=C/c3ccc(-c4cccc(Cl)c4)o3)[nH]c2c1,AC50,[1],"7.94 µM [falling, full curve]"
CN(C)c1ccc(CN(CC2CCCO2)C(=O)COc2ccc(Cl)cc2)cc1 (stereo not drawn),AC50,[1],"12.6 µM [falling, partial curve]"
CCc1ccc(-n2c(C)nc3cc(C(=O)NCCc4ccccc4)ccc32)cc1,AC50,[1],"25.1 µM [falling, partial curve, poor fit]"
COc1cccc(CN2C(=O)c3ccccc3C2C(=O)NCCc2ccc(OC)c(OC)c2)c1 (stereo not drawn),AC50,[1],"2 µM [rising, partial curve]"

# Shown as tab-separated lines: entries from further up.
smiles	measurement	setting	value
COC(=O)c1ccc(NC(=O)CC2C(=O)N(c3cccc(OC)c3)C(=O)N2Cc2cccc(OC)c2)cc1 (stereo not drawn)	AC50	[1]	12.6 µM [falling, partial curve]
CCOc1ccc2nc(N3CCCN(C(=O)Nc4ccccc4C)CC3)c(C#N)cc2c1	AC50	[1]	15.8 µM [falling, partial curve]
Cc1cccc(C(=O)Nc2ccc(N3CCC(CCN4CCOCC4)CC3)c(C(=O)O)c2)c1	AC50	[1]	3.98 µM [rising, partial curve]
